{"source": "paper PMC5919683", "about": "“Transcription factor HAT1 is a substrate of SnRK2.3 kinase and negatively regulates ABA synthesis and signaling in Arabidopsis responding to drought” (PLoS Genetics, 2018)", "target": "T1, GST-SnRK2.3 (Arabidopsis thaliana, UniProt Q39193 1-361)", "T1 construct": "SnRK2.3 of Arabidopsis; coding region inserted into pGEX-6P-1; also called GST-SnRK2s; SnRK2.3 fused with GST; source: recombinant (pGEX-6P-1 vector), purified with glutathione beads (Sigma)", "T1 sequence (looked up)": "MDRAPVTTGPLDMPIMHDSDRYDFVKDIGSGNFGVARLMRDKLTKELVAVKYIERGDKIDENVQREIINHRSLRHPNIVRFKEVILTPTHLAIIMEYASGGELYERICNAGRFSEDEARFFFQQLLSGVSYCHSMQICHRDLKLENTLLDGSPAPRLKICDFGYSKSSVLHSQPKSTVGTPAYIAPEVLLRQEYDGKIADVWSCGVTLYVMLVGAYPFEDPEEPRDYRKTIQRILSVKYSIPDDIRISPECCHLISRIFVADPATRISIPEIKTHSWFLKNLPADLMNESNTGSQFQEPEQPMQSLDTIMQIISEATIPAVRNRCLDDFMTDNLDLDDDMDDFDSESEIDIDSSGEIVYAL", "assay": "pull-down; GST pull-down: GST or GST-SnRK2s as bait, MBP-tagged HAT1 or its domains detected by western blotting with anti-MBP antibody; both purified", "note": "These are yes or no findings as the source states them, for the method shown. Binding can be weak; no strength is given. Sequences can lack the tags named with a protein.", "data": [{"substance": "MBP-HAT1 N-terminal region (Arabidopsis thaliana) (domain or fragment)", "values": [{"measurement": "binding", "result": "binds"}]}]}
